Laboratory results reported in paper PMC9234244.
Results are given in words; binding and its absence hold for the method and conditions named. For part of these data: In cells and extracts the contact can be indirect. Some binding calls cover weakened binding; strength is not graded here. For part of these data: Tags and fused reporters may be left off the sequences shown.

By UniProt entry, the sequences of proteins in these tests, tags left out. Residues count along the entry.
UniProt P27467, residues 19-352: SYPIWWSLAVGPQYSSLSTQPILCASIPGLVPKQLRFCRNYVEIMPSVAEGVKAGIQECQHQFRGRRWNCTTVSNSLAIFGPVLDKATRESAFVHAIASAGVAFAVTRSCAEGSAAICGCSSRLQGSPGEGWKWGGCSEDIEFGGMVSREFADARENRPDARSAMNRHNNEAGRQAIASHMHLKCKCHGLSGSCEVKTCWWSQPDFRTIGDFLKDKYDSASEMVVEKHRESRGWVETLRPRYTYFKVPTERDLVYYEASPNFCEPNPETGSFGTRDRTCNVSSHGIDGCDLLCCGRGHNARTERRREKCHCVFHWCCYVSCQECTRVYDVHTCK
UniProt O75581, residues 20-1613: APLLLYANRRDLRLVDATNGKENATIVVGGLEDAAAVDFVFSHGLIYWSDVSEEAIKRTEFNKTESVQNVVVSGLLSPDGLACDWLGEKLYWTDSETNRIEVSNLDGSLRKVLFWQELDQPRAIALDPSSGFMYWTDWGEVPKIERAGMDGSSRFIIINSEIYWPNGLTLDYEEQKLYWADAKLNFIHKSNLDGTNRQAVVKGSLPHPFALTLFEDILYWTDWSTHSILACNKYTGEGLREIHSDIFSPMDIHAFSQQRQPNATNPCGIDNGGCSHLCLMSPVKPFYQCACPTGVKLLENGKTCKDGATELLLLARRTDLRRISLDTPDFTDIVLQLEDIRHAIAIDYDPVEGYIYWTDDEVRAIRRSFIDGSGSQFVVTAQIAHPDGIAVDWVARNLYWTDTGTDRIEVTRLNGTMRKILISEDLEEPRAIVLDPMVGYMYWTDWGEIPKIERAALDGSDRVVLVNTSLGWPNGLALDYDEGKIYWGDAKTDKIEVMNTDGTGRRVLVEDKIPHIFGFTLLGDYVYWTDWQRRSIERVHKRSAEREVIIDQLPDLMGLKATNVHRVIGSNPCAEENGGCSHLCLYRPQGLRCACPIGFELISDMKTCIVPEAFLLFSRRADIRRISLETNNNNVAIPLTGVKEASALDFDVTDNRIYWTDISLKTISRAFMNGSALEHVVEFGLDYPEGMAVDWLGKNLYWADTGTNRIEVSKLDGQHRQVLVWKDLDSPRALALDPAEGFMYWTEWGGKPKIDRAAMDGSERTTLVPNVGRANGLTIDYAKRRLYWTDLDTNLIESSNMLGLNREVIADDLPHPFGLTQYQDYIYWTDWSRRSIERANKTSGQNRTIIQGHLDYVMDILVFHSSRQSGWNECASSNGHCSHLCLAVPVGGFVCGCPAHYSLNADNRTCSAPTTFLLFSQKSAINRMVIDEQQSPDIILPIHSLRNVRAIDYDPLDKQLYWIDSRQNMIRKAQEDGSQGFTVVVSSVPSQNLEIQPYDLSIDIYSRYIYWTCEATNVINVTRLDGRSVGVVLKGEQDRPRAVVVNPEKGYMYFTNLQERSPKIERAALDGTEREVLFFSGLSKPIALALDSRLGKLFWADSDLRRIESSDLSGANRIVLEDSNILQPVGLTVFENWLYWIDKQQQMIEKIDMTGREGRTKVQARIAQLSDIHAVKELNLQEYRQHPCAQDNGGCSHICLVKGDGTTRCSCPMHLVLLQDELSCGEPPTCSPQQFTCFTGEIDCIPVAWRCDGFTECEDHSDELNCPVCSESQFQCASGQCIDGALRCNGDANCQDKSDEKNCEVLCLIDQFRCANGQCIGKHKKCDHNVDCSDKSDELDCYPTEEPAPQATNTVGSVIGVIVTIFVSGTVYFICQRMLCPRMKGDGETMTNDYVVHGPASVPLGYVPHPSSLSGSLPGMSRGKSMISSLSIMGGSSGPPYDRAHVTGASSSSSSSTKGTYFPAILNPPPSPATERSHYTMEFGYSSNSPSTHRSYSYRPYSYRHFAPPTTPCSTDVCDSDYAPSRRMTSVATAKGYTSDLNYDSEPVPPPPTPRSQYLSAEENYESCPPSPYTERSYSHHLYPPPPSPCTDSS

What was measured:
[1] = target: T1, SNAP-tagged FZD4 (SNAP-FZD4) (UniProt Q61088); assay: pull-down; HEK293T cells expressing SNAP-FZD4 and MESD incubated 3 h with Wnt3a conditioned medium with or without FSTL1-HA conditioned medium; surface SNAP-FZD4 labelled with 1 μM BG-PEG12-Biotin 15 min at room temperature; lysates on streptavidin–agarose 6 h; blot for WNT3a and SNAP-FZD4
T1 sequence (chain, BG-PEG12-Biotin on the SNAP tag (cell surface labelling experiment only)): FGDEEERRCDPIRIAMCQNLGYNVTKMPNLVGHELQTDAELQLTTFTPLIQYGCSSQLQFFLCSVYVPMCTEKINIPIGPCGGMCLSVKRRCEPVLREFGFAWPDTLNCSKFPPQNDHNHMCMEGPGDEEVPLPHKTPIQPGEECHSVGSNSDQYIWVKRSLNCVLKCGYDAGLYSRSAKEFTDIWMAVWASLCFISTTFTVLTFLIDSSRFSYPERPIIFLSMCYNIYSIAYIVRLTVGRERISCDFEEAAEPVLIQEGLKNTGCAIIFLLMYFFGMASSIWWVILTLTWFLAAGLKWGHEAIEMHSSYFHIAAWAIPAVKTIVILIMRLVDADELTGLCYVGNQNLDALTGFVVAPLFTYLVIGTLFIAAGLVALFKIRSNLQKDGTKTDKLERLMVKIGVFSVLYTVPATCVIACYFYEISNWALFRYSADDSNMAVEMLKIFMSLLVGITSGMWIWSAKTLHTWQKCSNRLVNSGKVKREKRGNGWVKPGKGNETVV

[2] = target: T2, Recombinant FSTL1 protein (mFSTL1) (mouse) (UniProt Q62356); assay: co-IP; recombinant Wnt3a (1.5 μg) with or without recombinant FSTL1 (3 μg) in 300 μl Tris-buffered saline/0.1% Triton X-100 overnight at 4 °C; anti-FSTL1 antibodies, then Protein G agarose blocked with 1% BSA; both purified
T2 sequence: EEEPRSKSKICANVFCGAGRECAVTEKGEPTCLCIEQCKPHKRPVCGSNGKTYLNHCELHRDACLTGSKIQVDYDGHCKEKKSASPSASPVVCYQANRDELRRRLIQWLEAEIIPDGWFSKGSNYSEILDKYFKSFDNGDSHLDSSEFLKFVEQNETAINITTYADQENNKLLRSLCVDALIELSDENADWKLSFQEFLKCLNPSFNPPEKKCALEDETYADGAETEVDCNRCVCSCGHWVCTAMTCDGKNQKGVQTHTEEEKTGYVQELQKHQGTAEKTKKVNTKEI

[3] = target: T3, FSTL1-HA (follistatin-like 1, HA-tagged) (UniProt Q62356); assay: co-IP; HEK293T cells co-transfected; whole cell lysates incubated with the antibody at 4 °C overnight, then protein G or protein A beads 6 h at 4 °C; Western blotting
T3 sequence: T2 sequence

[4] = target: T4, WNT1, endogenous in mouse kidney with UUO (mouse (endogenous in UUO kidney)) (UniProt P04426); assay: co-IP; endogenous proteins; whole lysates of mouse kidneys with UUO for 7 days, preabsorbed with protein G beads, incubated with rabbit anti-Wnt1 and rabbit anti-WNT3a together (or normal rabbit IgG) at 4 °C overnight, Protein A beads; blot with anti-FSTL1
T4 sequence: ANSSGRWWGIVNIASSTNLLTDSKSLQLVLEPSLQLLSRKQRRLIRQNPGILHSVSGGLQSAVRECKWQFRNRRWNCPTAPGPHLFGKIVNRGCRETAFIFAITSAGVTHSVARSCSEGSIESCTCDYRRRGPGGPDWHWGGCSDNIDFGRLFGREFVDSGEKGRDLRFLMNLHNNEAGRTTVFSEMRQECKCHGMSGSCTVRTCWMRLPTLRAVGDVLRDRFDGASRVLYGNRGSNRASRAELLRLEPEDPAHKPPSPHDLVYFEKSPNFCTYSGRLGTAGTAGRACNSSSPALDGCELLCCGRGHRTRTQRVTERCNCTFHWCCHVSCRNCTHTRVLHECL

[5] = target: WNT3a, endogenous in mouse kidney with UUO (mouse (endogenous in UUO kidney)) (UniProt P27467); assay: as above
[6] = target: LRP6 (low-density lipoprotein receptor–related protein 6) (UniProt O75581); assay: co-IP; HEK293T cells co-transfected with FSTL1-HA, FZD4 and LRP6 plasmids; lysates immunoprecipitated with anti-LRP6
[7] = target: T1, SNAP-tagged FZD4 (SNAP-FZD4); assay: co-IP; HEK293T cells co-transfected; whole cell lysates incubated with the antibody at 4 °C overnight, then protein G or protein A beads 6 h at 4 °C; Western blotting
[8] = target: T3, FSTL1-HA (follistatin-like 1, HA-tagged); assay: co-IP; conditioned medium of co-transfected HEK293T cells immunoprecipitated with anti-HA or anti-V5; Western blotting

In the case of “Wnt3a in conditioned medium (Wnt3a CM) (from UniProt P27467 19-352) (ligand)”, the binding [1] is reported as “binds”.

In the case of “Recombinant WNT3a protein (from UniProt P27467 19-352) (ligand)”, the binding [2] is reported as “binds”.

B1: Wnt1 (ligand, UniProt P04426 28-370)
chain: T4 sequence
For B1, the binding [3] was “binds”.

B2: FSTL1, endogenous in mouse kidney with UUO (protein, UniProt Q62356 19-306)
chain: T2 sequence
In the case of B2, the binding [4] is reported as “binds” and the binding [5] is reported as “binds”.

B3: FZD4 (Frizzled-4) (receptor, UniProt Q61088 37-537)
chain: T1 sequence (chain, BG-PEG12-Biotin on the SNAP tag (cell surface labelling experiment only))
With B3 the binding [3] was “binds” and the binding [6] was “binds”.

B4: FSTL1 that does not have a tag (full-length, FL) (protein, UniProt Q62356 19-306)
chain: T2 sequence
With B4 the binding [7] was “binds”.

B5: Wnt2-V5 (ligand, UniProt P09544 26-360)
chain: SWWYMRATGGSSRVMCDNVPGLVSSQRQLCHRHPDVMRAISQGVAEWTAECQHQFRQHRWNCNTLDRDHSLFGRVLLRSSRESAFVYAISSAGVVFAITRACSQGEVKSCSCDPKKMGSAKDSKGIFDWGGCSDNIDYGIKFARAFVDAKERKGKDARALMNLHNNRAGRKAVKRFLKQECKCHGVSGSCTLRTCWLAMADFRKTGDYLWRKYNGAIQVVMNQDGTGFTVANERFKKPTKNDLVYFENSPDYCIRDREAGSLGTAGRVCNLTSRGMDSCEVMCCGRGYDTSHVTRMTKCGCKFHWCCAVRCQDCLEALDVHTCKAPKNADWTTAT
For B5, the binding [8] was “binds”.
